PubChem BioAssay AID1259405 – NCATS | 2018
This is one part, drawn at random, of about 50,000 reagents tested. About 4,000 of all reagents (8%) were called active. 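Mouse siRNA library applied to hamster cells; one well for each siRNA.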 Entries without a mark were called inactive. The numbers tell different reagents against one gene apart.

Screen: 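Knock-downs that lift recombinant protein yield in hamster ovary cells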 (primary screen)
Cells: Chinese hamster CHO-K1 ovary cells with stable secreted eGFP expression
Reagent: single siRNA against mouse genes, 0.8 pmol siRNA per well (2 µl of 400 nM stock)
Time to read-out: 3 days
Measured: 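Per-well intracellular GFP measured by laser scanning cytometry, plus viability from ATP luminescence, each relative to plate median of non-targeting control wells, in %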
Reading the numbers: GFP, % of control: higher = more GFP per well, higher productivity; viability (ATP), % of control: higher = more viable cells (more ATP)
Active means: 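a knock-down is called active if GFP reaches 120% or more of non-targeting control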

Gene | siRNA no. | GFP, % of control | viability (ATP), % of control
Sbds (GeneID 66711) | 1 | 67.5 | 61
Sbds (GeneID 66711) | 2 | 105 | 106
Sbds (GeneID 66711) | 3 | 56.6 | 71.6
Arhgef25 (GeneID 52666) | 1 | 136 (active) | 44.5
Arhgef25 (GeneID 52666) | 2 | 76.8 | 77
Arhgef25 (GeneID 52666) | 3 | 83.3 | 89.1
Or5as1 (GeneID 258586) | 1 | 77.6 | 80.1
Or5as1 (GeneID 258586) | 2 | 85 | 77.1
Or5as1 (GeneID 258586) | 3 | 43.5 | 17.7
Tusc3 (GeneID 80286) | 1 | 48.6 | 45.4
Tusc3 (GeneID 80286) | 2 | 61.3 | 98.6
Tusc3 (GeneID 80286) | 3 | 34.5 | 38
Fbxo25 (GeneID 66822) | 1 | 60.2 | 59.6
Fbxo25 (GeneID 66822) | 2 | 115 | 79.9
Fbxo25 (GeneID 66822) | 3 | 135 (active) | 82.8
Asah2 (GeneID 54447) | 1 | 89.3 | 90.1
Asah2 (GeneID 54447) | 2 | 64.1 | 70.4
Asah2 (GeneID 54447) | 3 | 64.6 | 86.4
Atad2 (GeneID 70472) | 1 | 92.9 | 132
Atad2 (GeneID 70472) | 2 | 56.3 | 90.9
Atad2 (GeneID 70472) | 3 | 83.7 | 70.4
Kansl1l (GeneID 68691) | 1 | 82.5 | 97.7
Kansl1l (GeneID 68691) | 2 | 53.7 | 48.8
Kansl1l (GeneID 68691) | 3 | 52.6 | 56.2
Idh3g (GeneID 15929) | 1 | 82.3 | 68.2
Idh3g (GeneID 15929) | 2 | 62.3 | 64.1
Idh3g (GeneID 15929) | 3 | 112 | 94.6
Hace1 (GeneID 209462) | 1 | 82.6 | 69.5
Hace1 (GeneID 209462) | 2 | 160 (active) | 75.5
Hace1 (GeneID 209462) | 3 | 92.7 | 79.8
Igsf8 (GeneID 140559) | 1 | 61.6 | 69.2
Igsf8 (GeneID 140559) | 2 | 86.9 | 80.6
Igsf8 (GeneID 140559) | 3 | 87.7 | 79.1
Rab8a (GeneID 17274) | 1 | 80.4 | 105
Rab8a (GeneID 17274) | 2 | 73.7 | 43.5
Rab8a (GeneID 17274) | 3 | 47.2 | 65.7
Srsf7 (GeneID 225027) | 1 | 95.4 | 54.6
Srsf7 (GeneID 225027) | 2 | 79.7 | 81.6
Srsf7 (GeneID 225027) | 3 | 66 | 64.9
Znrf4 (GeneID 20834) | 1 | 58.7 | 79.3
Znrf4 (GeneID 20834) | 2 | 85.3 | 91.8
Znrf4 (GeneID 20834) | 3 | 97.1 | 104
Faap24 (GeneID 101831) | 1 | 89.8 | 83.3
Faap24 (GeneID 101831) | 2 | 64.6 | 53.6
Faap24 (GeneID 101831) | 3 | 123 (active) | 136
Snx6 (GeneID 72183) | 1 | 73.7 | 75.9
Snx6 (GeneID 72183) | 2 | 93 | 84.6
Snx6 (GeneID 72183) | 3 | 88.4 | 71.1
Ahdc1 (GeneID 230793) | 1 | 89.9 | 95.9
Ahdc1 (GeneID 230793) | 2 | 82.6 | 68.9
Ahdc1 (GeneID 230793) | 3 | 74.2 | 90.8
Tmem145 (GeneID 330485) | 1 | 124 (active) | 77.5
Tmem145 (GeneID 330485) | 2 | 92.6 | 71.1
Tmem145 (GeneID 330485) | 3 | 139 (active) | 77.3
Mdh1 (GeneID 17449) | 1 | 86.3 | 101
Mdh1 (GeneID 17449) | 2 | 86.2 | 76.5
Mdh1 (GeneID 17449) | 3 | 74.2 | 97.5

Hits, of those listed so far:
Gene | siRNA no. | GFP, % of control | viability (ATP), % of control
Arhgef25 (GeneID 52666) | 1 | 136 (active) | 44.5
Fbxo25 (GeneID 66822) | 3 | 135 (active) | 82.8
Hace1 (GeneID 209462) | 2 | 160 (active) | 75.5
Faap24 (GeneID 101831) | 3 | 123 (active) | 136
Tmem145 (GeneID 330485) | 1 | 124 (active) | 77.5
Tmem145 (GeneID 330485) | 3 | 139 (active) | 77.3
